# Reference: publication PMC3282699, “S. pombe Kinesins-8 Promote Both Nucleation and Catastrophe of Microtubules” (PLoS ONE, 2012)
# These are yes or no findings as the source states them, for the method shown. For some assays here: In cells and extracts the contact can be indirect. Some binding calls cover weakened binding; strength is not graded here. Sequences can lack the tags named with a protein.
# T1: Klp5_(436)GST (S. pombe) (UniProt O14343)
# T1 sequence: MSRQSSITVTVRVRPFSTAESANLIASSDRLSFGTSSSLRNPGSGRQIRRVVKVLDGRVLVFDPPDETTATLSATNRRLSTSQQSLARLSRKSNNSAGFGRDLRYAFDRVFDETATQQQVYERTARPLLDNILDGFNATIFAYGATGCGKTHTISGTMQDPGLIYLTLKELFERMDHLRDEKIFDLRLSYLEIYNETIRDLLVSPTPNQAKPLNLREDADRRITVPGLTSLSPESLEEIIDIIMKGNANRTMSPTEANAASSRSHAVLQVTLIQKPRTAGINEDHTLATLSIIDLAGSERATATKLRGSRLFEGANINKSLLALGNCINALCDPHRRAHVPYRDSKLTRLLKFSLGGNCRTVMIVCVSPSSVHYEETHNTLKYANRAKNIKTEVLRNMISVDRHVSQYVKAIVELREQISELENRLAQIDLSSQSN
# Assays:
# Klp6_(415)His (S. pombe) = Klp6_(415)His (S. pombe) (UniProt O59751); experiment: SEC; Superose-12 HR 10/300 GL at 4°C, 0.5 ml/min, 100 mM PIPES, 200 mM NaCl, 1 mM MgCl2, 2 mM EDTA, pH 6.9; elution compared with Ovalbumin (43 kDa) and Bovine Serum Albumin (67 kDa); both purified
# Klp5_(436)GST (S. pombe) = molecular target: T1, Klp5_(436)GST (S. pombe); experiment: pull-down; co-expressed in E. coli; sequential affinity purification from the bacterial lysate by the His tag (Ni column) and then the GST tag (eluted with 10 mM glutathione); SDS-PAGE, densitometry
binding (Klp6_(415)His (S. pombe)),binding (Klp5_(436)GST (S. pombe)),Binder
no binding,–,"Klp6_(415)His (domain or fragment, UniProt O59751 1-415) MKEGSSISVAVRVRPFTEREKGLLAETPKSKEFLGDGSLAVSNTSSNTFCTNGIRKIVRVLDDNVLIFDPPEENPLAKVQKSLLPAGKRFRDVRYAFDRLFGEEASQEDVYKGTTEPLLDSVLQGYNATVFAYGATGCGKTHTISGRPDDPGIIFLTMRALLDRVEGLKRTMNVDISVSYLEIYNEKIRDLLVQDPLSMEKPKSLNICEDAEQNVSVPGLSYFTPTNLEEVMEIIIRGNSNRTMSPTEANAVSSRSHAVLQIYITQTPKSGEKQEESESQNSHKVRSVFSFIDLAGSERASATKNRGKRLVEGANINRSLLALGNCINSLCEPRRRQHVPYRDSKLTRLLKFSLGGNCRTCMIVCISPSSEHYDETHNTLKYGNRAKNIKTKVSRNVVSVDRHVSEYVRTIYELR"
–,binds,"Klp6_(440)His (domain or fragment, S. pombe, UniProt O59751 1-440, looked up, Klp6 of S. pombe, amino acids 1-440: motor domain and complete putative coiled-coil domain; Homodimer by Superose 12 gel filtration; also called Klp6(aa1-440)/GlyGly/6xHis tag; Klp440His; source: E. coli Rosetta 2 (DE3), purified (HisTrap); not shown: His6 (after a GlyGly linker), C-terminal, kept) MKEGSSISVAVRVRPFTEREKGLLAETPKSKEFLGDGSLAVSNTSSNTFCTNGIRKIVRVLDDNVLIFDPPEENPLAKVQKSLLPAGKRFRDVRYAFDRLFGEEASQEDVYKGTTEPLLDSVLQGYNATVFAYGATGCGKTHTISGRPDDPGIIFLTMRALLDRVEGLKRTMNVDISVSYLEIYNEKIRDLLVQDPLSMEKPKSLNICEDAEQNVSVPGLSYFTPTNLEEVMEIIIRGNSNRTMSPTEANAVSSRSHAVLQIYITQTPKSGEKQEESESQNSHKVRSVFSFIDLAGSERASATKNRGKRLVEGANINRSLLALGNCINSLCEPRRRQHVPYRDSKLTRLLKFSLGGNCRTCMIVCISPSSEHYDETHNTLKYGNRAKNIKTKVSRNVVSVDRHVSEYVRTIYELRQKVSILQKRIAEESKQLALNKEVRK"
